# Some of the results follow.
# Key:
# Assay in all cases: glycan array binding signal (z-score within array); higher = stronger binding
# Details in all cases: glycan notation: IUPAC condensed, linker removed
# [1] = target: Gal(b1-3)GlcNAc(b1-2)Man(a1-3)[Gal(b1-3)GlcNAc(b1-2)Man(a1-6)]Man(b1-4)GlcNAc(b1-4)[Fuc(a1-6)]GlcNAc
# Outline: (§1)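 The binding signal is a Z-score computed within each array. Data were drawn from 3228 arrays in the Consortium for Functional Glycomics database, restricted to those with a known protein sequence. Scores were averaged over arrays of the same protein sequence at different concentrations or buffers, and over linkers, and negative values can be taken as non-binding.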
# [2] = target: Gal(b1-3)GlcNAc(b1-2)Man(a1-3)[GlcNAc(b1-4)][Gal(b1-3)GlcNAc(b1-2)Man(a1-6)]Man(b1-4)GlcNAc(b1-4)GlcNAc
# Outline: as §1
# [3] = target: Gal(b1-3)GlcNAc(b1-2)[Gal(b1-3)GlcNAc(b1-6)]Man(a1-6)[Gal(b1-3)GlcNAc(b1-2)Man(a1-3)]Man(b1-4)GlcNAc(b1-4)GlcNAc
# Outline: as §1
# [4] = target: Gal(b1-3)GlcNAc(b1-3)Gal(b1-3)GlcNAc
# Outline: as §1
# [5] = target: Gal(b1-3)GlcNAc(b1-3)Gal(b1-4)Glc
# Outline: as §1
# [6] = target: Gal(b1-3)GlcNAc(b1-3)Gal(b1-4)GlcNAc
# Outline: as §1
# [7] = target: Gal(b1-3)GlcNAc(b1-3)Gal(b1-4)GlcNAc(b1-2)Man(a1-3)[Gal(b1-3)GlcNAc(b1-3)Gal(b1-4)GlcNAc(b1-2)Man(a1-6)]Man(b1-4)GlcNAc(b1-4)GlcNAc
# Outline: as §1
# [8] = target: Gal(b1-3)GlcNAc(b1-3)Gal(b1-4)GlcNAc(b1-2)[Gal(b1-3)GlcNAc(b1-3)Gal(b1-4)GlcNAc(b1-6)]Man(a1-6)[Gal(b1-3)GlcNAc(b1-3)Gal(b1-4)GlcNAc(b1-2)Man(a1-3)]Man(b1-4)GlcNAc(b1-4)[Fuc(a1-6)]GlcNAc
# Outline: as §1
# [9] = target: Gal(b1-3)GlcNAc(b1-3)Gal(b1-4)GlcNAc(b1-3)Gal(b1-4)GlcNAc(b1-2)[Gal(b1-3)GlcNAc(b1-3)Gal(b1-4)GlcNAc(b1-3)Gal(b1-4)GlcNAc(b1-6)]Man(a1-6)[Gal(b1-3)GlcNAc(b1-3)Gal(b1-4)GlcNAc(b1-3)Gal(b1-4)GlcNAc(b1-2)Man(a1-3)]Man(b1-4)GlcNAc(b1-4)[Fuc(a1-6)]GlcNAc
# Outline: as §1
# [10] = target: Gal(b1-3)GlcNAc(b1-3)Gal(b1-4)GlcNAc(b1-6)[Gal(b1-3)GlcNAc(b1-3)]Gal(b1-4)Glc
# Outline: as §1
# [11] = target: Gal(b1-3)GlcNAc(b1-3)Gal(b1-4)[Fuc(a1-3)]GlcNAc
# Outline: as §1
# [12] = target: Gal(b1-3)GlcNAc(b1-3)Gal(b1-4)[Fuc(a1-3)]GlcNAc(b1-6)[Gal(b1-3)GlcNAc(b1-3)]Gal(b1-4)Glc
# Outline: as §1
# [13] = target: Gal(b1-3)GlcNAc(b1-3)GalNAc
# Outline: as §1
# [14] = target: Gal(b1-3)GlcNAc(b1-6)Gal(b1-4)GlcNAc
# Outline: as §1
# [15] = target: Gal(b1-3)GlcNAc(b1-6)GalNAc
# Outline: as §1
# [16] = target: Gal(b1-3)GlcNAc(b1-6)[Gal(b1-3)]GalNAc
# Outline: as §1
# Gal(b1-3)GlcNAc6S = target: Gal(b1-3)GlcNAc6S
# Outline: as §1
# [17] = target: Gal(b1-3)[Fuc(a1-4)]GlcNAc
# Outline: as §1
# [18] = target: Gal(b1-3)[Fuc(a1-4)]GlcNAc(b1-2)Man
# Outline: as §1
# [19] = target: Gal(b1-3)[Fuc(a1-4)]GlcNAc(b1-2)Man(a1-3)[Gal(b1-3)[Fuc(a1-4)]GlcNAc(b1-2)Man(a1-6)]Man(b1-4)GlcNAc(b1-4)[Fuc(a1-6)]GlcNAc
# Outline: as §1
# [20] = target: Gal(b1-3)[Fuc(a1-4)]GlcNAc(b1-3)Gal(b1-3)[Fuc(a1-4)]GlcNAc
# Outline: as §1
# [21] = target: Gal(b1-3)[Fuc(a1-4)]GlcNAc(b1-3)Gal(b1-4)[Fuc(a1-3)]GlcNAc
# Outline: as §1
# [22] = target: Gal(b1-3)[Fuc(a1-4)]GlcNAc(b1-6)GalNAc
# Outline: as §1
# [23] = target: Gal(b1-3)[GlcNAc(b1-6)]GalNAc
# Outline: as §1
# [24] = target: Gal(b1-3)[Neu5Ac(a2-6)]GalNAc
# Outline: as §1
# [25] = target: Gal(b1-3)[Neu5Ac(a2-6)]GlcNAc(b1-4)Gal(b1-4)Glc
# Outline: as §1
# [26] = target: Gal(b1-3)[Neu5Ac(b2-6)]GalNAc
# Outline: as §1
# Gal(b1-4)Gal = target: Gal(b1-4)Gal
# Outline: as §1
# [27] = target: Gal(b1-4)GalNAc(a1-3)[Fuc(a1-2)]Gal(b1-4)GlcNAc
# Outline: as §1
# [28] = target: Gal(b1-4)GalNAc(b1-3)[Fuc(a1-2)]Gal(b1-4)GlcNAc
# Outline: as §1
# Gal(b1-4)Glc = target: Gal(b1-4)Glc
# Outline: as §1
# Gal(b1-4)Glc6S = target: Gal(b1-4)Glc6S
# Outline: as §1
# Gal(b1-4)GlcNAc = target: Gal(b1-4)GlcNAc
# Outline: as §1
# [29] = target: Gal(b1-4)GlcNAc(a1-6)Gal(b1-4)GlcNAc
# Outline: as §1
# Gal(b1-4)GlcNAc(b1-2)Man = target: Gal(b1-4)GlcNAc(b1-2)Man
# Outline: as §1
# [30] = target: Gal(b1-4)GlcNAc(b1-2)Man(a1-3)Man(b1-4)GlcNAc(b1-4)GlcNAc
# Outline: as §1
# [31] = target: Gal(b1-4)GlcNAc(b1-2)Man(a1-3)[Gal(b1-4)GlcNAc(b1-2)Man(a1-6)]Man(b1-4)GlcNAc(b1-4)GlcNAc
# Outline: as §1
# [32] = target: Gal(b1-4)GlcNAc(b1-2)Man(a1-3)[Gal(b1-4)GlcNAc(b1-2)Man(a1-6)]Man(b1-4)GlcNAc(b1-4)[Fuc(a1-6)]GlcNAc
# Outline: as §1
# [33] = target: Gal(b1-4)GlcNAc(b1-2)Man(a1-3)[Gal(b1-4)GlcNAc(b1-2)Man(a1-6)][Gal(b1-4)GlcNAc(b1-4)]Man(b1-4)GlcNAc(b1-4)[Fuc(a1-6)]GlcNAc
# Outline: as §1
# [34] = target: Gal(b1-4)GlcNAc(b1-2)Man(a1-3)[Gal(b1-4)GlcNAc(b1-2)Man(a1-6)][GlcNAc(b1-4)]Man(b1-4)GlcNAc(b1-4)[Fuc(a1-6)]GlcNAc
# Outline: as §1
# [35] = target: Gal(b1-4)GlcNAc(b1-2)Man(a1-3)[GlcNAc(b1-2)Man(a1-6)]Man(b1-4)GlcNAc(b1-4)GlcNAc
# Outline: as §1
# [36] = target: Gal(b1-4)GlcNAc(b1-2)Man(a1-3)[GlcNAc(b1-4)][Gal(b1-4)GlcNAc(b1-2)Man(a1-6)]Man(b1-4)GlcNAc(b1-4)GlcNAc
# Outline: as §1
# [37] = target: Gal(b1-4)GlcNAc(b1-2)Man(a1-3)[Man(a1-6)]Man(b1-4)GlcNAc(b1-4)GlcNAc
# Outline: as §1
# [38] = target: Gal(b1-4)GlcNAc(b1-2)Man(a1-6)Man(b1-4)GlcNAc(b1-4)GlcNAc
# Outline: as §1
# [39] = target: Gal(b1-4)GlcNAc(b1-2)Man(a1-6)[GlcNAc(b1-2)Man(a1-3)]Man(b1-4)GlcNAc(b1-4)GlcNAc
# Outline: as §1
binder,measurement,setting,value
Lb MiSSP8 (Laccaria bicolor) (protein) MYFHTLFACATLMLITTAHASPTVINSLDSRKADLNGDVEARHAADWRRDSDWRRDSDWRRDSDWRRDSD,glycan array binding signal (z-score),[1],0.326
same,glycan array binding signal (z-score),[2],1.29
same,glycan array binding signal (z-score),[3],0.54
same,glycan array binding signal (z-score),[4],-0.778
same,glycan array binding signal (z-score),[5],-0.26
same,glycan array binding signal (z-score),[6],-0.654
same,glycan array binding signal (z-score),[7],-0.523
same,glycan array binding signal (z-score),[8],0.54
same,glycan array binding signal (z-score),[9],0.982
same,glycan array binding signal (z-score),[10],-0.088
same,glycan array binding signal (z-score),[11],-0.682
same,glycan array binding signal (z-score),[12],-0.53
same,glycan array binding signal (z-score),[13],-0.958
same,glycan array binding signal (z-score),[14],-0.136
same,glycan array binding signal (z-score),[15],-0.619
same,glycan array binding signal (z-score),[16],-0.454
same,glycan array binding signal (z-score),Gal(b1-3)GlcNAc6S,-0.468
same,glycan array binding signal (z-score),[17],-0.195
same,glycan array binding signal (z-score),[18],0.471
same,glycan array binding signal (z-score),[19],2.19
same,glycan array binding signal (z-score),[20],-0.419
same,glycan array binding signal (z-score),[21],-0.309
same,glycan array binding signal (z-score),[22],-0.543
same,glycan array binding signal (z-score),[23],-0.447
same,glycan array binding signal (z-score),[24],0.447
same,glycan array binding signal (z-score),[25],-0.716
same,glycan array binding signal (z-score),[26],-0.799
same,glycan array binding signal (z-score),Gal(b1-4)Gal,-3.19
same,glycan array binding signal (z-score),[27],-0.73
same,glycan array binding signal (z-score),[28],-0.916
same,glycan array binding signal (z-score),Gal(b1-4)Glc,0.702
same,glycan array binding signal (z-score),Gal(b1-4)Glc6S,-0.84
same,glycan array binding signal (z-score),Gal(b1-4)GlcNAc,0.087
same,glycan array binding signal (z-score),[29],-0.633
same,glycan array binding signal (z-score),Gal(b1-4)GlcNAc(b1-2)Man,0.437
same,glycan array binding signal (z-score),[30],-0.716
same,glycan array binding signal (z-score),[31],-0.619
same,glycan array binding signal (z-score),[32],0.526
same,glycan array binding signal (z-score),[33],-0.599
same,glycan array binding signal (z-score),[34],-0.751
same,glycan array binding signal (z-score),[35],-0.709
same,glycan array binding signal (z-score),[36],-0.026
same,glycan array binding signal (z-score),[37],2.3
same,glycan array binding signal (z-score),[38],-0.751
same,glycan array binding signal (z-score),[39],-0.578

# Retrieved one by one from the entries so far (three):
binder,measurement,setting,value
Lb MiSSP8 (Laccaria bicolor) (protein) MYFHTLFACATLMLITTAHASPTVINSLDSRKADLNGDVEARHAADWRRDSDWRRDSDWRRDSDWRRDSD,glycan array binding signal (z-score),[11],-0.682
same,glycan array binding signal (z-score),[5],-0.26
same,glycan array binding signal (z-score),[8],0.54

# — the supplement of paper PMC8728848
